Data as given in PubChem BioAssay AID652243 (Drosophila RNAi Screening Center, 2013)

Purpose: 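Knock-downs that decrease or increase androgen receptor reporter signal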 (primary screen)
System: Drosophila S2R+ cells
Knock-down reagent: long dsRNA against Drosophila genes
Timing: 72 h (48 h, then 24 h hormone)
Challenge: synthetic androgen R1881 at 10 nM for 24 h
Measurement: 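Firefly light from an androgen-responsive reporter and Renilla control light per well, raw and unnormalised, for each of two replicates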
Direction: firefly reporter light: higher = more light from androgen-responsive reporter; Renilla control light: higher = more constitutive control signal (cell number, transfection)
Active means: 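Across duplicate plates, a knock-down whose log firefly/Renilla ratio shifted a set fold down or up from the GFP/LacZ control mean was a hit; the downward cut appears as both 1.5 and 3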
Meaning of the calls: active = hit: reporter lowered or raised; inactive = no hit
The screen tested about 24,000 reagents; this is a random part of those with a known target gene and a result. Of all reagents, 246 (1%) got an active call. 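Plates not normalised; calls are printed but the firefly/Renilla ratio behind them is not deposited; fold cut for lowering reported inconsistently.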 The raw values are shown without normalisation. The numbers tell different reagents against one gene apart. Names joined by + are all predicted targets of the reagent. Reagent sequences are not shown. Not stated in the record: the amount of reagent.

firefly reporter light, replicate 1	firefly reporter light, replicate 2	Renilla control light, replicate 1	Renilla control light, replicate 2	call	target gene	dsRNA no.
2.31e5	1.56e5	1.93e6	1.52e6	inactive	Cln3	1
2.82e5	2.80e5	4.45e5	4.92e5	inactive	Cln3	2
2.25e5	2.28e5	1.21e6	8.76e5	inactive	CG2812	1
4.63e5	5.08e5	1.20e6	1.80e6	inactive	CG2812	2
1.36e6	1.58e6	2.20e6	2.66e6	inactive	Gmd	1
1.05e6	5.95e5	4.09e6	1.54e6	inactive	Gmd	2
1.40e5	1.93e5	5.65e5	6.82e5	inactive	tplus3a + tplus3b	1
7.02e5	7.82e5	1.00e6	1.00e6	inactive	Phf7	1
2.02e5	3.49e5	3.32e6	3.36e6	inactive	CARPA	1
9.65e5	7.64e5	2.32e6	2.03e6	inactive	CARPA	2
6.05e5	5.71e5	2.01e6	1.57e6	inactive	crm	1
3.28e5	2.58e5	3.88e5	4.38e5	inactive	crm	2
6.50e5	7.51e5	1.18e6	8.86e5	inactive	crm	3
1.33e5	1.30e5	7.27e5	8.23e5	inactive	Npc2f	1
2.04e5	3.28e5	1.64e6	3.37e6	inactive	CG15035	1
1.35e5	1.22e5	1.46e6	7.50e5	inactive	CG6765	1
5.21e5	6.38e5	6.76e5	1.08e6	inactive	CG6765	2
1.09e5	1.51e5	1.64e6	1.96e6	inactive	Dscam3	1
1.93e5	1.58e5	2.76e6	2.26e6	inactive	Dscam3	2
1.21e5	1.62e5	1.53e6	1.55e6	inactive	Ir56d	1
5.08e5	4.99e5	1.08e6	1.34e6	inactive	Ir56d	2
45506	56572	3.60e5	3.71e5	inactive	CG11309	1
8.88e5	9.51e5	1.51e6	1.45e6	inactive	CG11309	2
5.92e5	6.33e5	1.85e6	1.94e6	inactive	Ets98B	1
4.54e5	3.09e5	5.64e5	4.52e5	inactive	Ets98B	2
7.70e5	6.17e5	1.42e6	1.83e6	inactive	CG34298	1
9.59e5	8.04e5	1.85e6	1.43e6	inactive	Ctf4	1
4.57e5	4.68e5	1.55e6	1.70e6	inactive	Cdk4	1
1.65e5	1.24e5	4.69e5	4.75e5	inactive	Cdk4	2
12554	13489	2.87e5	2.03e5	active	Vps26	1
9.07e5	1.09e6	4.85e5	7.18e5	inactive	Vps26	2
5.09e5	4.17e5	2.87e6	3.47e6	inactive	fliI	1
8.84e5	9.60e5	2.71e6	2.07e6	inactive	CG3544	1
				inactive	CG3544	2
				inactive	CG3544	3
2.75e5	2.08e5	1.73e6	1.97e6	inactive	CG9426	1
2.03e5	2.16e5	3.27e6	2.87e6	inactive	ms(3)K81	1
2.07e5	3.57e5	1.96e6	3.18e6	inactive	Ppt1	1
1.66e5	1.34e5	1.26e6	1.11e6	inactive	Taf13	1
6.71e5	8.38e5	1.89e6	1.77e6	inactive	ORY	1
2.20e5	1.39e5	1.19e6	5.25e5	inactive	CG34330	1
2.88e5	4.19e5	4.78e5	4.78e5	inactive	CG34330	2
1.71e5	1.39e5	5.40e5	3.54e5	inactive	CG7992	1
1.18e5	1.05e5	2.08e6	2.33e6	inactive	CG9837	1
6.62e5	4.88e5	2.17e6	1.44e6	inactive	CG9837	2
88869	1.96e5	2.40e6	2.91e6	inactive	Raf	1
8.87e5	9.62e5	1.78e6	1.75e6	inactive	Raf	2
8.36e5	7.79e5	1.87e6	1.79e6	inactive	Raf	3
2.53e5	3.35e5	3.34e6	2.04e6	inactive	CG33110	1
2.53e5	3.20e5	6.70e5	7.09e5	inactive	CG33110	2
4.13e5	4.19e5	2.26e6	2.76e6	inactive	CG7296	1
6.88e5	6.94e5	1.96e6	2.19e6	inactive	CG7296	2
1.17e6	1.39e6	7.03e5	7.46e5	inactive	CG7296	3
27647	53147	8.75e5	7.60e5	inactive	Kat60	1
5.41e5	5.48e5	3.82e5	2.56e5	inactive	Scp1	1
6.87e5	5.31e5	6.60e5	4.98e5	inactive	Scp1	2
1.75e5	1.76e5	4.65e5	3.31e5	inactive	Scp1	3
1.02e5	1.70e5	1.26e6	2.45e6	inactive	Cpr97Ea	1
2.52e5	2.89e5	3.27e5	3.82e5	inactive	Cpr97Ea	2

6 entries from above, arranged by “firefly reporter light, replicate 2”, descending:
firefly reporter light, replicate 1	firefly reporter light, replicate 2	Renilla control light, replicate 1	Renilla control light, replicate 2	call	target gene	dsRNA no.
1.17e6	1.39e6	7.03e5	7.46e5	inactive	CG7296	3
6.88e5	6.94e5	1.96e6	2.19e6	inactive	CG7296	2
4.13e5	4.19e5	2.26e6	2.76e6	inactive	CG7296	1
2.53e5	3.35e5	3.34e6	2.04e6	inactive	CG33110	1
2.53e5	3.20e5	6.70e5	7.09e5	inactive	CG33110	2
27647	53147	8.75e5	7.60e5	inactive	Kat60	1
